Assay: serum DNA of mice
Assay type: in vivo, mouse
Conditions: AKI mice; cisplatin 25 mg/kg, AA I 10 mg/kg every 24 h for 3 days or LPS 25 mg/kg, i.p.; n = 5; Fig. 1b

| Compound | serum DNA levels |
| --- | --- |
| COc1cccc2c1cc([N+](=O)[O-])c1c(C(=O)O)cc3c(c12)OCO3 [aristolochic acid I] | obviously elevated levels of DNA in serum |
| N.N.[Cl][Pt][Cl] [cisplatin] | obviously elevated levels of DNA in serum |

From paper PMC12032302, “A20 attenuates oxidized self-DNA-mediated inflammation in acute kidney injury” (Signal Transduction and Targeted Therapy, 2025)
